No constants are given. Whether binding was seen depends on the method and setting. Binding seen in cells or lysates may run through a third protein. These calls come from enrichment with a bait or labelling near it, and not all partners need be listed.
Assays:
ERα-Flag = ERα-Flag (UniProt P03372); assay: proximity labelling; ERα-Flag BAR (biotinylation by antibody recognition): fixed, permeabilised MCF7-TO cells, anti-Flag primary antibody, HRP-conjugated secondary antibody, biotin phenol and H2O2 for 3 min; streptavidin beads, label-free MS, n = 3; control: doxycycline-treated cells without ERα-Flag
[1] = target: Estrogen receptor α (ERα), endogenous (human (endogenous in MCF7)) (UniProt P03372); assay: proximity labelling; ERα BAR: fixed, permeabilised MCF7-wt cells, 6F11 anti-ERα primary antibody, HRP-conjugated secondary antibody, biotin phenol and H2O2 for 3 min; streptavidin beads, label-free MS, n = 3; control: primary antibody omitted
[2] = target: ERα^Y537C, endogenous in MCF7-LTED^Y537C cells (human (endogenous in MCF7-LTED^Y537C)) (UniProt P03372); assay: proximity labelling; ERα BAR TMT: endogenous ERα targeted with 6F11 in fixed MCF7-wt, MCF7-LTED^wt and MCF7-LTED^Y537C cells; streptavidin beads, TMTpro-16 plex MS, n = 2; controls: tubulin BAR (spatial) and primary antibody omitted
[3] = target: Estrogen receptor α (ERα), endogenous (human (endogenous in MCF7)) (UniProt P03372); assay: as above

The chains behind the UniProt entries cited, without tags or fusion partners. Where a name states a change or a piece, a line headed by the entry shows the natural chain unless it says otherwise.
UniProt P03372: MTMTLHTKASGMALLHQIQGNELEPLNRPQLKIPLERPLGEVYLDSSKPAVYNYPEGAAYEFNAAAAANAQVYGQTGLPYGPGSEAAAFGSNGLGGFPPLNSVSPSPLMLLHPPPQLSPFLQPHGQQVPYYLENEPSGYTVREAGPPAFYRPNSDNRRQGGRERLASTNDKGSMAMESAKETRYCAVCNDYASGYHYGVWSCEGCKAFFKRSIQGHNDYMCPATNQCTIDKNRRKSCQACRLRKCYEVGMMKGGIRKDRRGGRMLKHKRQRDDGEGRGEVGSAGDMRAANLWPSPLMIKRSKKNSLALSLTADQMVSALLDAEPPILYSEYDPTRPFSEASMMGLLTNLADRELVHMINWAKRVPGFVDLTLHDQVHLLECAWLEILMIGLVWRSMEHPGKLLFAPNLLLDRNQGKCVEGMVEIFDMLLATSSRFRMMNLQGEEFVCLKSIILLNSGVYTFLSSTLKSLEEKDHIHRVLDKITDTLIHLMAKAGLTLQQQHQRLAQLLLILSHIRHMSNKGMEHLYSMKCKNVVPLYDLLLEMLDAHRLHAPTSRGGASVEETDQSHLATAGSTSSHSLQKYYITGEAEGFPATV
UniProt Q92841: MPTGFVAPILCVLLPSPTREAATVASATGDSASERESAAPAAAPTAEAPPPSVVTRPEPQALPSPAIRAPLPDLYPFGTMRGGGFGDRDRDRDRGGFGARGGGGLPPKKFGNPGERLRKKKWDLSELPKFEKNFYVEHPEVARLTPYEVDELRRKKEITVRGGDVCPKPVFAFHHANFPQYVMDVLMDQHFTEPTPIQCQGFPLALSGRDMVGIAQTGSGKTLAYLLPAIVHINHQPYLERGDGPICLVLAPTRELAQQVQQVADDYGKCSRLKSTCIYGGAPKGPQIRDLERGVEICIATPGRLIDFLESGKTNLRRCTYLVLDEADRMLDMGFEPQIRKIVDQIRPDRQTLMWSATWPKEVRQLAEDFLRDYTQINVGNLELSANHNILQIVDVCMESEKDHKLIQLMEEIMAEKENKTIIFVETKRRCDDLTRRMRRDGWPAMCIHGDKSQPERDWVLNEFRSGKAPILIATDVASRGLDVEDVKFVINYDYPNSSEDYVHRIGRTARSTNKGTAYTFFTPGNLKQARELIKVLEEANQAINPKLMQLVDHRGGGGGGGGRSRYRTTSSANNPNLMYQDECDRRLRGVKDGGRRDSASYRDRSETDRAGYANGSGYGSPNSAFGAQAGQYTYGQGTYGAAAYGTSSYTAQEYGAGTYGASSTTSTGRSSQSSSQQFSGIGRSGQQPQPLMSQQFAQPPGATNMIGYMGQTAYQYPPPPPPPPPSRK
UniProt Q15648: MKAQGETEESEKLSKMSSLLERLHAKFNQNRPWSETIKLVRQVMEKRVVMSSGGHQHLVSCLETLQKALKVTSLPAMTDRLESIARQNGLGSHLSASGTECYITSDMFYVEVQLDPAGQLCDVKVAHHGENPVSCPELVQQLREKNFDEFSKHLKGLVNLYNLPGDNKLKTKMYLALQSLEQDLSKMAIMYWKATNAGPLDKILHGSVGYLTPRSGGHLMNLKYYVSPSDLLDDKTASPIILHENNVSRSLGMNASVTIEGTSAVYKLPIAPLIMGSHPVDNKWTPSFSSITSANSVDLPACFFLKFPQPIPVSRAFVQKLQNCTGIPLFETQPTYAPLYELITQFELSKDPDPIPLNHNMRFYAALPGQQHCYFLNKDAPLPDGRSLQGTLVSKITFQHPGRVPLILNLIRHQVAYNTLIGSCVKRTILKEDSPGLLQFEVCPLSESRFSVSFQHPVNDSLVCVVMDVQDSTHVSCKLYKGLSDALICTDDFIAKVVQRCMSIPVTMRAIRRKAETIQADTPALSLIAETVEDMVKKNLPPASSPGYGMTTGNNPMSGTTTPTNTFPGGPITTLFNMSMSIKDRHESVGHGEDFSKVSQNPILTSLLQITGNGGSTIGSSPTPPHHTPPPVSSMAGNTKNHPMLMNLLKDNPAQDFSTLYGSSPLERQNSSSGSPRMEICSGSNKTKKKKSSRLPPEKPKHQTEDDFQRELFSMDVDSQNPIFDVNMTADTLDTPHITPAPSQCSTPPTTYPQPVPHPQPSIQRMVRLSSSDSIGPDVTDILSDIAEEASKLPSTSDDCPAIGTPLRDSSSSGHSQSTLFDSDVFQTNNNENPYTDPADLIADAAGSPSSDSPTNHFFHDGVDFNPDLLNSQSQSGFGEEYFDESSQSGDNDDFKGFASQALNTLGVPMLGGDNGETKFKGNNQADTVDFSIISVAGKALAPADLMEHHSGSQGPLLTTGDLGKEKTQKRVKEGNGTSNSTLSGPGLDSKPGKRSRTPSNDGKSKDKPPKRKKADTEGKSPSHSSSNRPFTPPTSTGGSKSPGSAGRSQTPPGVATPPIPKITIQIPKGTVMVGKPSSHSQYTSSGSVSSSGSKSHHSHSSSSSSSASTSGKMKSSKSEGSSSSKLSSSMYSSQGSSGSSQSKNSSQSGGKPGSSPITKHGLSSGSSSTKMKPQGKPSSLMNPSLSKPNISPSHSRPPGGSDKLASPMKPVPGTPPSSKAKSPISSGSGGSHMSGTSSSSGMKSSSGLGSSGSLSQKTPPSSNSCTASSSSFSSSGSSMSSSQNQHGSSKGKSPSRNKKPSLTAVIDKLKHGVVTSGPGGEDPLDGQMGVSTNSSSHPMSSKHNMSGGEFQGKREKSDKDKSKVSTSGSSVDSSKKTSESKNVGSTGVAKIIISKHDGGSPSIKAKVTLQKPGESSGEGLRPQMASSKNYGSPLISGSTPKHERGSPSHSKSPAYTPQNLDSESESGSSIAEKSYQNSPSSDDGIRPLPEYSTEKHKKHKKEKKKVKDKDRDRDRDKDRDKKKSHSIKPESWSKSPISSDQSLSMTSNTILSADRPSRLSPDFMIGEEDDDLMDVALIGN
UniProt Q8IZL8: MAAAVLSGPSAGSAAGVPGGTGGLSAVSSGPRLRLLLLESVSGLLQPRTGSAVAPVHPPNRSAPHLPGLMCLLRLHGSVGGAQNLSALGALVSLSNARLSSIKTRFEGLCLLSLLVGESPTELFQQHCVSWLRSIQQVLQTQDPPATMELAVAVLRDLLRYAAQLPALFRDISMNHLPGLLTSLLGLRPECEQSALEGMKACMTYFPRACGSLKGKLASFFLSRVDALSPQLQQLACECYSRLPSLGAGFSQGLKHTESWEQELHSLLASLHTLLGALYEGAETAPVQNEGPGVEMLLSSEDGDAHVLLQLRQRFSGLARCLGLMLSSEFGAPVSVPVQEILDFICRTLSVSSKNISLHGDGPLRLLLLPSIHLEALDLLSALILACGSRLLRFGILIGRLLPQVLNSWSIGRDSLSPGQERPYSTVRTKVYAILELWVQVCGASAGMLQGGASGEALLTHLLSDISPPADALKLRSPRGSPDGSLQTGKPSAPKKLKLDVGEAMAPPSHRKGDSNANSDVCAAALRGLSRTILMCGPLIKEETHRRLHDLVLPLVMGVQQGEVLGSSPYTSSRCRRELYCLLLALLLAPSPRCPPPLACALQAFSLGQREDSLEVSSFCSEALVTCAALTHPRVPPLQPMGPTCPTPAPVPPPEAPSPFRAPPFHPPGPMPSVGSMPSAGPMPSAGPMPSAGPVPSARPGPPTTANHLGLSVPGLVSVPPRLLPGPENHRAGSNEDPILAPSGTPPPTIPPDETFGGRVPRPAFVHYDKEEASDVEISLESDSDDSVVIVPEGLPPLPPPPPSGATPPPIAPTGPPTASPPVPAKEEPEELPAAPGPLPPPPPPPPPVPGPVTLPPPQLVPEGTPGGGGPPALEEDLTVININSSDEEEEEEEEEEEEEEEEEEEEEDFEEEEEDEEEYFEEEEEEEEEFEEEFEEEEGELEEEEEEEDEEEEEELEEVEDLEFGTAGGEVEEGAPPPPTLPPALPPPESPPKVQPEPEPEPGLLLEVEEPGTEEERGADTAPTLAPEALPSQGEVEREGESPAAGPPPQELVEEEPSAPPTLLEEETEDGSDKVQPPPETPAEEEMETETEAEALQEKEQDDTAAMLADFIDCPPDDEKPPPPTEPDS
UniProt O15047: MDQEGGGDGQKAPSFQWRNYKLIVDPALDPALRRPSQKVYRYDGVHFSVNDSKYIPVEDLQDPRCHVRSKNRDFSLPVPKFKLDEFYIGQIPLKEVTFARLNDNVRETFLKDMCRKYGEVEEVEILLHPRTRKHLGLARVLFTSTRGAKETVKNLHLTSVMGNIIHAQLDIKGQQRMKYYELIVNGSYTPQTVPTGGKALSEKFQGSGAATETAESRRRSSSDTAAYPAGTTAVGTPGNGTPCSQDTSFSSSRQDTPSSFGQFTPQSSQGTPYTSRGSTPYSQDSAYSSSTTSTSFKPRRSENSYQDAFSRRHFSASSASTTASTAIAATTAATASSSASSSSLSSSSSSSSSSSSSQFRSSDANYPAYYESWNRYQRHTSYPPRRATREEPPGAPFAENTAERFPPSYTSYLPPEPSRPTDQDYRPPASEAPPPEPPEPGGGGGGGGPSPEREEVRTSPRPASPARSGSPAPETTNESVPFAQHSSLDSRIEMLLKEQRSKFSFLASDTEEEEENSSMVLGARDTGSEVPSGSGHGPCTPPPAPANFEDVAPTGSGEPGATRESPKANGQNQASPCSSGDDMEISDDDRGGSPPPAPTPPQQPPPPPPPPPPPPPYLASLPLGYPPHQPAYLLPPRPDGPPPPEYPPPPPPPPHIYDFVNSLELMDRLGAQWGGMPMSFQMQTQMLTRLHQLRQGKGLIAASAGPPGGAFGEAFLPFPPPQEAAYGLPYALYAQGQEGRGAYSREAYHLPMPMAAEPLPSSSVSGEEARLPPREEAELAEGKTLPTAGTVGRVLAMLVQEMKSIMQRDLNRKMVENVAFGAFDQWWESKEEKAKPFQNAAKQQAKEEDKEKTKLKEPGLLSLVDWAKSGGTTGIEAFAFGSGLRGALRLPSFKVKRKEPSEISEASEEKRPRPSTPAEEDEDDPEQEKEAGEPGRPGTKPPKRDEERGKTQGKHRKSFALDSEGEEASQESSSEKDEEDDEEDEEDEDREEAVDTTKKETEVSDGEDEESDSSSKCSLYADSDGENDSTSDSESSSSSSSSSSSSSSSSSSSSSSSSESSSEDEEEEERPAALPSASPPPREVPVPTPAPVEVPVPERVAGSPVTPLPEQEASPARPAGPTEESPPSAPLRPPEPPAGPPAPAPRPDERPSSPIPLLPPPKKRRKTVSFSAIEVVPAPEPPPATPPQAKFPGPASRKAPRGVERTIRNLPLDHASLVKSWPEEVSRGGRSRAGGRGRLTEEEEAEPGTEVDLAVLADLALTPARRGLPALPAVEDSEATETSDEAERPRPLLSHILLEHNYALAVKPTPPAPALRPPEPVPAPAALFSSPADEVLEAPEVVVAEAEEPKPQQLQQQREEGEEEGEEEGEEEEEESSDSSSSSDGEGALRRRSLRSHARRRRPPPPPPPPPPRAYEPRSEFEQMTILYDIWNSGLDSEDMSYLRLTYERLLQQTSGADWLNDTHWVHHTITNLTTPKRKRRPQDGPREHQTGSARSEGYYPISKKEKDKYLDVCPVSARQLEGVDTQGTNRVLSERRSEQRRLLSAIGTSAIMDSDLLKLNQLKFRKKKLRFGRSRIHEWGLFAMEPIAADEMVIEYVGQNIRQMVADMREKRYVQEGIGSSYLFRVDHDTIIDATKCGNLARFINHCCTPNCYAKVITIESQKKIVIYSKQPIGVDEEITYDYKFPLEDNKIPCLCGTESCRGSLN
UniProt Q06587: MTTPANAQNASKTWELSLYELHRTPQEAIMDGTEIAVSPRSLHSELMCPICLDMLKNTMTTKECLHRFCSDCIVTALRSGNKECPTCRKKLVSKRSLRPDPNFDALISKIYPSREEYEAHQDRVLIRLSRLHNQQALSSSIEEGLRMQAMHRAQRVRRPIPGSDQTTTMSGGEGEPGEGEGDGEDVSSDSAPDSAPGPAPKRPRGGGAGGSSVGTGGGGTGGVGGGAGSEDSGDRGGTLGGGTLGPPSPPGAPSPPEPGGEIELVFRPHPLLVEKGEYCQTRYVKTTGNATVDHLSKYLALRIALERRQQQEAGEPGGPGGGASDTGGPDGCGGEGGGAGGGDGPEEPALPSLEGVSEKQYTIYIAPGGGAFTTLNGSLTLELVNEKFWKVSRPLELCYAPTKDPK
UniProt Q969G3: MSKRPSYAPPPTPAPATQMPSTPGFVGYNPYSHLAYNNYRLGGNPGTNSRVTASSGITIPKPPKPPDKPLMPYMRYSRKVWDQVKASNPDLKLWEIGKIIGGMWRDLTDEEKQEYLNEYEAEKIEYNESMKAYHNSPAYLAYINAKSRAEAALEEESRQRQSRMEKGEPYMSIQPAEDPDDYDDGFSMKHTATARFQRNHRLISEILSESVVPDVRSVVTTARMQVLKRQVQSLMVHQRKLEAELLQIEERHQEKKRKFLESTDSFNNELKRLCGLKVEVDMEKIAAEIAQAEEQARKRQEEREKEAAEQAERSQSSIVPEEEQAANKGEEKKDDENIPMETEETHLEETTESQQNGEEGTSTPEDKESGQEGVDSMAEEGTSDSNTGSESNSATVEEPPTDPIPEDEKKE

Substance	binding (ERα-Flag)	binding [1]	binding [2]	binding [3]
CBX3 (from UniProt Q13185 1-183)	binds	binds	–	–
DDX17 (from UniProt Q92841 1-729)	binds	–	binds	binds
MED1 (from UniProt Q15648 1-1581)	–	–	–	binds
PELP1 (from UniProt Q8IZL8 1-1130)	binds	binds	binds	binds
SETD1A (from UniProt O15047 1-1707) (enzyme)	–	–	binds	binds
SMARCD2 (from UniProt Q92925 1-531)	–	–	binds	binds

More lines, now with the values ahead:

binding (ERα-Flag)	binding [1]	binding [2]	binding [3]	Substance
–	–	binds	–	GATA3 (from UniProt P23771 1-443)
–	–	binds	–	GREB1 (from UniProt Q4ZG55 1-1949)
binds	binds	–	–	NCOR1 (from UniProt O75376 1-2440)
–	–	binds	binds	RCOR1 (from UniProt Q9UKL0 1-485)
binds	binds	binds	binds	RING1 (from UniProt Q06587 1-406) (enzyme)
–	–	binds	binds	SMARCE1 (from UniProt Q969G3 1-411)
–	–	–	binds	UIMC1 (from UniProt Q96RL1 1-719)
